The record followed here is paper PMC3865253.

No constants are given. Whether binding was seen depends on the method and setting. Binding seen in cells or lysates may run through a third protein. Some binding calls cover weakened binding; strength is not graded here. For some of these results: Tags and fused reporters may be left off the sequences shown.

Experiment [1] addresses T1, GFP-ICA69 (islet cell autoantigen 69 kDa) (rat) (UniProt Q63054).
T1 sequence: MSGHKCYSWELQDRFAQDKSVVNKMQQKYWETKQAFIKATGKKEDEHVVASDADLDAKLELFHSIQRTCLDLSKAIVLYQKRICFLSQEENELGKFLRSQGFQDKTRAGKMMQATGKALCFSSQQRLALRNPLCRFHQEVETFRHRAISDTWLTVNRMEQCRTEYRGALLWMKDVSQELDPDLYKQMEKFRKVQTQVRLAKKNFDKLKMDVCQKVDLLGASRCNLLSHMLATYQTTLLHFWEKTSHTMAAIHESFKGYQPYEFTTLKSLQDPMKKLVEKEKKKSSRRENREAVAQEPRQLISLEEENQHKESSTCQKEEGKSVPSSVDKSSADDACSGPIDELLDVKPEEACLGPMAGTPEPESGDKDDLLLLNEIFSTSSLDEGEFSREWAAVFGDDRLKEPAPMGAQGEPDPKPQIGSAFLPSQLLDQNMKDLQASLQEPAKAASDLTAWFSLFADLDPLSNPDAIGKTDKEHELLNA
The experiment in a line: co-IP; 293T cells triple-transfected with myc-PKCα, HA-PICK1 and GFP-ICA69; precipitated with rabbit anti-GFP antibody; blots with anti-PICK1 and anti-myc.

In experiment [2] the target is T2, ICA69, endogenous in rat brain (rat (endogenous in rat brain)) (UniProt Q63054).
T2 sequence: T1 sequence
The experiment in a line: co-IP; rat brain homogenate; precipitated with rabbit anti-ICA69 antibody; blots with anti-PKCα, anti-PICK1 and anti-ICA69; rabbit IgG as negative control.

Experiment [3] addresses T1, GFP-ICA69 (islet cell autoantigen 69 kDa) (rat). The experiment in a line: co-IP; 293T cells co-transfected with myc-PICK1 and GFP, GFP-ICA69 or a GFP-tagged truncation; RIPA lysate; precipitated with anti-GFP antibody on protein A-sepharose; blot with anti-myc; quantified as Co-IP myc/Input myc, normalized to the ICA69 group; 4 independent cultures.
Another experiment deals with HA-PICK1 (rat) (UniProt Q9EP80). The experiment in a line: co-IP; 293T cells co-transfected with HA-PICK1 and myc-PKCα; precipitated with mouse anti-HA antibody; blot with anti-myc.

On to HA-PICK1 (from UniProt Q9EP80 1-416), for which the binding entry in experiment [1] is “binds”. In the case of “PICK1, endogenous in rat brain (from UniProt Q9EP80 1-416)”, the binding result in experiment [2] is “binds”. For “myc-PICK1 (protein interacting with C-kinase 1) (from UniProt Q9EP80 1-416)”, the binding entry in experiment [3] is reported as “binds”. Take “myc-PKCα (from UniProt P05696 1-672) (enzyme)”: in the experiment with HA-PICK1 (rat), the binding entry is “binds”.
